Molecular target: Belimumab (IgG1)
Experiment: SPR as in Example 5

B1: Affinity ligand of SEQ ID NO: 51 (dimeric Ig binding protein) (designed binder)
chain: AQHDKIQQAAFHEILHLPNLTEEQRNKFIQSLRDDPSVSLEILCEAKKLNDAQAPKIAAQHDKIQQAAFHEILHLPNLTEEQRNKFIQSLRDDPSVSLEILAEAKKLNDAQAPK
notes: also called ID51
B1 showed a Kd of 47.4 nM.

Reference: US12570690 (NAVIGO PROTEINS, dated 2026)
